Experiment [1] has as its target Signal transducer and activator of transcription 3 (STAT3) (mouse (endogenous in liver tissue)) (UniProt P42227). Description: co-IP; endogenous proteins in liver tissue lysates of WT mice; indicated antibody with protein A/G magnetic beads at 4 °C overnight, immunoblot; which protein was precipitated is not told. Background: In western blotting, separated proteins are transferred to a membrane and probed.

Sequences of proteins named here, by UniProt entry; tags and fusion partners are left off.
UniProt P42227: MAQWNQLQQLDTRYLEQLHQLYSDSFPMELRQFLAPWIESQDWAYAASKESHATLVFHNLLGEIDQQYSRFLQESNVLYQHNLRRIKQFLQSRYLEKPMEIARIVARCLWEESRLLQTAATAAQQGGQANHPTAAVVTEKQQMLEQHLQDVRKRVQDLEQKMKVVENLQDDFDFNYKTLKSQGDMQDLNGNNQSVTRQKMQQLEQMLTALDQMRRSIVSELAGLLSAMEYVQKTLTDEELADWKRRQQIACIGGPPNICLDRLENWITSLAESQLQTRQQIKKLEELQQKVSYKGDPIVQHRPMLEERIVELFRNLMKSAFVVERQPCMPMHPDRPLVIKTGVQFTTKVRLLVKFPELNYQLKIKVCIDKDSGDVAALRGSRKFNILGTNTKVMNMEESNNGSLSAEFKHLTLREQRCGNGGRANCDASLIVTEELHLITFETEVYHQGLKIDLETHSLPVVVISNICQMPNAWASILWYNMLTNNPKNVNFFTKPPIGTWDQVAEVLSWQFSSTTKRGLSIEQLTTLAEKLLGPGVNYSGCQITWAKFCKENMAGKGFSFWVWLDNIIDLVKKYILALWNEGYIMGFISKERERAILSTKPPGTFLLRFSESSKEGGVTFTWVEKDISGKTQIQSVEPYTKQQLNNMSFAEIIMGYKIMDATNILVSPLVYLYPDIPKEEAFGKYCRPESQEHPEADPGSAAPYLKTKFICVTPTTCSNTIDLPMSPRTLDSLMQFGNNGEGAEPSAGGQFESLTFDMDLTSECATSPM

Experiment [2] concerns the target Flag‐STAT3 (mouse) (UniProt P42227). Description: co-IP; HEK293T cells transfected with Myc‐MSL1 with or without Flag‐STAT3 or Flag‐H4 for 24 h; for STAT3 without or with 10 ng mL^-1 IL‐6 for 30 min; indicated antibody with protein A/G magnetic beads at 4 °C overnight, immunoblot.

These are yes or no findings as the source states them, for the method shown. Binding seen in cells or lysates may run through a third protein. Some entries that bind do so weakly or less than the wild type. For some assays here: Where a sequence is shown, tags or fusion partners need not be part of it.

B1: Male‐specific lethal 1 (MSL1) (protein, UniProt Q6PDM1 1-616)
chain: MTMRSAVFKAAAAPAGGNPEQRLDYERAAALGGPEDESGAAEAHFLPRHRKLKEPGPPLASSQGGSPSPSPAGCGGGKGRGLLLPAGAAPGQQEESWGGSVPLPCPPPATKQAGIGGEPVAAGAGCSPRPKYQAVLPIQTGSIVVAAAKEPTPWAGDKGGAAPPAATASDPAGPPPLPLPGPPPLAPTATAGTLAASEGRWKSIRKSPLGGGGGSGASSQAACLKQILLLQLDLIEQQQQQLQAKEKEIEELKSERDTLLARIERMERRMQLVKRDNEKERHKLLQGYEPEEREEAELSEKIKLERQPELCETSQALPSKPFSCGRSGKGHKRKTPFGNTERKTPVKKLAPEFSKVKTKTPKHSPIKEEPCGSISETVCKRELRSQETPEKPRSSVDTPPRLSTPQKGPSTHPKEKAFSSEMEDLPYLSTTEMYLCRWHQPPPSPLPLRESSPKKEETVARCLMPSSVAGETSVLAVPSWRDHSVEPLRDPNPSDILENLDDSVFSKRHAKLELDEKRRKRWDIQRIREQRILQRLQLRMYKKKGIQESEPEVTSFFPEPDDVESLLITPFLPVVAFGRPLPKLAPQNFELPWLDERSRCRLEIQKKHTPHRTCRK
On to B1, for which the binding result in experiment [1] was “binds”.

B2: Myc‐MSL1 (protein, UniProt Q6PDM1 1-616)
chain: B1 chain
As to B2, the binding result in experiment [2] is “binds”.

The values are drawn from publication PMC10427353.
